Values from PubChem BioAssay AID652259 (Drosophila RNAi Screening Center, 2013)

Screen: 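Knock-downs that push a Wingless-driven reporter up or down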 (primary screen)
Cell system: Drosophila clone 8 imaginal disc epithelial cells
Knock-down reagent: long dsRNA against Drosophila genes
Conditions: pathway stimulated by co-transfected Wingless expression plasmid
Read-out: 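Firefly luciferase from a tcf-site Wingless reporter, measured alongside co-transfected Renilla luciferase that tracks transfection; pathway stimulated by a Wingless plasmid; the firefly-to-Renilla ratio is not deposited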
Scale: firefly reporter light: higher = more Wg reporter light, before normalisation; Renilla control light: higher = more transfected or surviving cells
Hit rule: 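Strong candidates differ from their plate mean by at least two out of four per-plate statistical tests; weak candidates meet just one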
Calls: active = candidate regulator (raises or lowers reporter); inactive = not a candidate
The screen tested about 22,000 reagents; shown is an unselected part of those that have a named target and a result. Over the whole deposit, 233 (1.1%) were called active. 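Light values are raw, unnormalised plate reads; the ratio scores behind the reporter calls were not deposited.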 The numbers tell different reagents against one gene apart. Names joined by + are all predicted targets of the reagent. No sequences are given here. The record does not give: the amount of reagent, the time to read-out, the dose of the treatment.

gene	dsRNA no.	reporter change call, replicate 1	firefly reporter light, replicate 1	firefly reporter light, replicate 2	Renilla control light, replicate 1	Renilla control light, replicate 2	activity call
DUBAI + Tmem18	1		22903		18934		inactive
rod	1		20113		10309		inactive
Tsp96F	1		3196	4609	900	2344	inactive
Arp8	1		3096	8080	1195	2681	inactive
CG17190	1		16028		3452		inactive
CG14294	1		14371		2027		inactive
CG15308	1		16250		8116		inactive
how	1		34675		6970		inactive
hppy	1		6384		2211		inactive
hppy	2		6791		2928		inactive
hppy	3		5691		1532		inactive
robls54B	1		18864		13155		inactive
GIIIspla2	1		1920	6988	519	2247	inactive
CG33125	1		14053		7699		inactive
plum	1		1463	4153	946	1605	inactive
Cap-D3 + tomb	1		2235	7030	825	1110	inactive
CG45105	1		13853		1426		inactive
CG45105	2		7344		2179		inactive
CG14453	1		20077	6.77e5	6932	3.37e5	inactive
CG31717	1		15734		5714		inactive
CG1889	1		3815	10294	1132	2909	inactive
CG8929	1		15573		4617		inactive
CG8929	2		9.76e5	6.00e5	4.41e5	4.83e5	inactive
JMJD4	1		17732		6177		inactive
Ir87a	1		22304		4184		inactive
unpg	1		1453	5059	556	2630	inactive
Dad	1		2269	9652	1074	2673	inactive
SIFa	1		2736	6562	753	2618	inactive
CG9164	1		3389		294		inactive
CG9164	2		3186	7441	1408	2891	inactive
CG18545	1		11010		3786		inactive
ppl	1		7549		2475		inactive
CG4133	1	Wg reporter activity raised	7360	7072	1146	1184	active
CG13557	1		3292	7259	762	3046	inactive
RluA-2	1		7104		2592		inactive
CG8202	1		17873		5794		inactive
CG5877	1		2913	9752	1160	3734	inactive
CG17198 + CG17197	1		30727		20041		inactive
CG17198 + CG17197	2		20642		15092		inactive
Adck5	1		5554		2724		inactive
Ttc30	1		3857	9137	1888	3752	inactive
CG32206	1		4635		1988		inactive
CG32206	2		12041		4480		inactive
CG32206	3		10601		3856		inactive
CG32206	4		15883		6044		inactive
CG32206	5		14057		4353		inactive
CG43127	1		3744		1261		inactive
CG4563	1		3013	6812	546	2313	inactive

The list goes on (6 carried over from the part before).
gene	dsRNA no.	reporter change call, replicate 1	firefly reporter light, replicate 1	firefly reporter light, replicate 2	Renilla control light, replicate 1	Renilla control light, replicate 2	activity call
CG32206	2		12041		4480		inactive
CG32206	3		10601		3856		inactive
CG32206	4		15883		6044		inactive
CG32206	5		14057		4353		inactive
CG43127	1		3744		1261		inactive
CG4563	1		3013	6812	546	2313	inactive
CG15125	1		7209		2309		inactive
Ir93a	1		2850	6178	1429	2016	inactive
Ir93a	2		18950		3673		inactive
jigr1	1		4785		2224		inactive
jigr1	2		22038		21987		inactive
jigr1	3		6.60e5	5.88e5	2.49e5	1.01e5	inactive
CG30259	1		2779	10876	741	3143	inactive
CG30259	2		3847	6579	860	2828	inactive
H2.0	1		4612	9014	1953	4148	inactive
H2.0	2		6.06e5	6.78e5	2.80e5	2.53e5	inactive
Mps1	1		3168	6985	1218	2112	inactive
CanB2	1		4596		1228		inactive
Src42A	1		13177		3520		inactive
Src42A	2		3741	10236	890	3050	inactive
RpL13A	1		5723		2677		inactive
MED8	1		11821		2549		inactive
CG11367	1		5.86e5	6.26e5	2.05e5	1.91e5	inactive
CG11370	1		9974		2982		inactive
CG31300	1		17671		14393		inactive
CG4042	1		16232		4616		inactive
Rpn10	1		14421		5227		inactive
Srg2	1		2044		1079		inactive
Zcchc7	1		4490		1483		inactive
CG5290	1		5452		1798		inactive
Cadps	1		18336		10173		inactive
Cadps	2		4.30e5	5.31e5	1.91e5	2.27e5	inactive
